## Primary screen of a compound library

By UniProt entry, the sequences of proteins in these tests, tags left out.
UniProt E9BF75, entry or part of it: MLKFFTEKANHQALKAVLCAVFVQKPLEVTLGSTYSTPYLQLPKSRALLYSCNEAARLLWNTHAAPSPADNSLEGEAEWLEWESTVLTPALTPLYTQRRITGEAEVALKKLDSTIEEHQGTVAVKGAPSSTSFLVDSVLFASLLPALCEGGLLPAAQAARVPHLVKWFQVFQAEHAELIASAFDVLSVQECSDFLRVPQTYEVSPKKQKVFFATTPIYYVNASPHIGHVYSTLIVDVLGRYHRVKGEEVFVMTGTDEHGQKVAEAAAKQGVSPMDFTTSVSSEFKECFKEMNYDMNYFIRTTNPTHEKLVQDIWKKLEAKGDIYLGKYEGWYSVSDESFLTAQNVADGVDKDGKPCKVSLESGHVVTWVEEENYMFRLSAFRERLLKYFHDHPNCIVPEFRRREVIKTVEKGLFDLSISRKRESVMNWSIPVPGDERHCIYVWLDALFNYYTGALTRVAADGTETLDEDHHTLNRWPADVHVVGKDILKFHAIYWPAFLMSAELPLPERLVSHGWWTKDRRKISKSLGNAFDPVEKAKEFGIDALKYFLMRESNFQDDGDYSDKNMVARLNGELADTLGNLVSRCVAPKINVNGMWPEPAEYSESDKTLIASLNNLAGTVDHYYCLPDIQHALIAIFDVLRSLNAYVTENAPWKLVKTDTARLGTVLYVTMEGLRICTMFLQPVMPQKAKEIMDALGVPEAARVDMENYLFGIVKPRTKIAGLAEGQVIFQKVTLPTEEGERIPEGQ

A: 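Primary screen of methionyl-tRNA synthetase; the read-out is not stated. Target: Methionyl-tRNA synthetase (putative), Leishmania donovani (UniProt E9BF75). The test concentration is not given. Values are per cent inhibition. Of about 68,000 compounds tested this way, about 24 (0.035%) reached 50% or more in at least one test.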
B: 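Assay on Mycobacterium tuberculosis, filed only as a heat shock assay from Cornell; the read-out is not stated. The concentration is filed as 10 mM, unlikely as a test dose, so the dose is not known. Direction is inferred from retests: higher values go with stronger inhibition. About 69,000 compounds were tested under these conditions; 1.4% (about 930) showed 50% or more at least once.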

Results are percentages, as filed. How 0% and 100% were set is not recorded. Most values in the screen are low, and negative values occur. Compounds were drawn at random from those tested, without regard to their results. A dash means the value is not listed here; it may have been measured.

Compound	A	B
CN(C)CCn1ccc2cc(NC(=O)NCc3ccon3)ccc21	8.71%	-12.42%
COc1ccc(C[C@H]2CN(c3nnc(C)s3)CC[C@@H]2OC)cc1	20.5%	-
O=C(NCc1cccnc1)C1CC(=O)N(CC2CC2)C1 (stereo not shown)	11.81%	-15.71%
COc1ccc(S(N)(=O)=O)cc1C(=O)N(C)Cc1cc(C)on1	0%	11.51%
[H][C@@]12C[C@H](C)O[C@]1([H])CCN(C(=O)CC1CC1)C2	-	-1.018%
CCc1ccc2c(c1)C(CCNC(=O)CCc1ccsc1)C(=O)N2 (stereo not shown)	13.02%	4.414%
Cc1nc(CN2CCC(CNC(=O)Nc3ccccn3)CC2)oc1C	16.73%	4.706%
Nc1cc(-c2cc(C(=O)O)ccc2Cl)c2cc[nH]c2n1	18.51%	-5.625%
CN1CCN(CCO)C(=O)C12CCN(c1nccs1)CC2	11.23%	-1.815%
CC(COc1ccccc1)NCc1nc(-c2cccnc2)no1 (stereo not shown)	16.81%	3.769%
COCCCN(C)C(=O)Cn1cccc(OC)c1=O	17.58%	-18.19%
Cc1ccc(NC(=O)CCc2cnn(C)c2)cc1F	27.89%	-2.75%
CC(NCC(F)(F)F)c1ccc(S(C)(=O)=O)c(F)c1 (stereo not shown)	14.78%	-14.02%
COc1cc(CN2CCCCCC2c2cccs2)cc(OC)c1O (stereo not shown)	5.634%	1.414%
CC(C)C1CN(c2cccc(C#N)n2)CCCN1Cc1ccc(F)cc1 (stereo not shown)	11.68%	6.105%
CCOc1cccc2c1OCC(=O)N(c1ccc3c(c1)OCCO3)C2	12.74%	11.44%
CNC(=O)N1CCc2cc(C(=O)NCC3CC3)c(NC(C)C)nc2CC1	6.452%	-5.561%
Cn1ccnc1CCC1CCCCN1Cc1nccn1C (stereo not shown)	10%	-9.92%
COCCn1ccc(=O)c(OCC(=O)Nc2ccc(OC)c(Cl)c2)c1C	8.01%	19.78%
CN1CCC(C)(CN(C)Cc2ccc(CCC(C)(C)O)cc2)C1 (stereo not shown)	16.72%	-0.2394%
O=C(Nc1cccs1)N(CCO)CCOCC(F)(F)F	13.69%	-7.681%
Cc1nc(CNC(=O)[C@@H]2CCCN2C(=O)OC(C)(C)C)cs1	18.35%	1.569%
N#Cc1ccc(S(=O)(=O)NCCn2ccnc2)cc1Cl	5.866%	-2.622%
COCc1ccccc1CNC(=O)CNc1ccccc1C(C)=O	7.833%	-29.01%
CCCc1cc(NCCC2CCCOC2)n2nccc2n1 (stereo not shown)	5.333%	-21.78%
NC(=O)c1cccc2nc([C@H]3CCN(Cc4ccccn4)C3)[nH]c12	12.03%	-31.44%
CC(=O)c1ccc(N2CCCC(CO)(CCc3ccccc3)C2)nc1 (stereo not shown)	18.73%	-9.998%
Cc1cn2c(n1)CCC(NC(=O)CCC(F)(F)F)C2 (stereo not shown)	9.449%	3.714%
CC1c2ncc(CNC(=O)C3CC3)n2CCN1Cc1ccncc1.O=C(O)C(F)(F)F.O=C(O)C(F)(F)F (stereo not shown)	-	-34.91%
COc1ccc2c(c1)C(C(=O)N(C)CCCc1cnn(C)c1)CC(=O)N2 (stereo not shown)	8.6%	9.924%
Cn1cccc1C(=O)N1CCN(CC2CC2)c2ncccc2C1	14.64%	-2.407%
COc1ccc(CC(=O)NC2CCN(CC(F)F)CC2)cc1OC	14.46%	-9.02%
O=C(O)C(F)(F)F.[H][C@@]12CCCO[C@]1([H])[C@H](N1CCCC1)CN(C(=O)c1ccccc1)C2	-	-13.53%
O=C(NCCN1CCCCC1)c1cccc(Cl)c1Cl	9.524%	6.706%
CCc1nnc2n1CCN(C(=O)CCOc1ccc(C)cc1C)C2	2.326%	12.09%
Cc1nc(C)n(CC2CCCN2Cc2nc(-c3cccs3)no2)n1 (stereo not shown)	24.49%	19.47%
COC(=O)c1cccn1C1CCN(C(=O)c2ccc(C)[nH]c2=O)CC1	18.52%	-5.375%
CC(=O)N1CCC(c2nn(C)c3nccnc23)C1 (stereo not shown)	4.688%	-11.44%
Cc1noc(C2CCCN(C(=O)CCCNc3ncccn3)C2)n1 (stereo not shown)	12.22%	0.8642%
CC(C)CN1CCCC2(CCN(c3ccccn3)C2)C1 (stereo not shown)	10.22%	-
COc1nc2c(cc1C(=O)NC(C)Cc1cnccn1)CCC2 (stereo not shown)	11.58%	-1.932%
COc1cc(C)nc(N2CCN(C(=O)CCn3cc(C)cn3)CC2)n1	9.859%	8.687%
CCOc1ccccc1C(CC(=O)N(C)c1ccccc1)NC(C)=O (stereo not shown)	0.8065%	-9.34%
O=C(CC1CCCC1)N1CCC2(CCN2Cc2ccc(F)cc2)C1.O=C(O)C(F)(F)F (stereo not shown)	-	-4.938%
O=C(O)C(F)(F)F.O=C(O)C(F)(F)F.c1cnc(N2CCOCC3(CCCN(Cc4cccs4)C3)C2)nc1 (stereo not shown)	-	-15.57%
[H][C@]12CCCN(C(=O)c3ccsc3)[C@@]1([H])CN(C(=O)c1ccco1)C2	-	11.02%
CN1CCCN(C(=O)c2cnsn2)c2cc(F)ccc21	7.859%	-35.83%
Cc1cccc(CN2C[C@@H]3CN(C(=O)c4ccco4)C[C@@H]3C2=O)c1	11.85%	-
CC(C)CCC1=NC2(CCN(C(=O)CN3CCCC3=O)CC2)C(=O)N1	4.337%	14.79%
CN1CCC2(CC1)Cc1ccccc1CN(C(=O)CN)C2	9.143%	-1.742%
[H][C@@]12CN(C(=O)c3ccc(F)cc3)C[C@]1([H])CN(c1ncccn1)C2	-	0.9701%
O=C(COCC1CC1)N1CCCC1c1nc(-c2ccccc2F)c[nH]1 (stereo not shown)	10.13%	4.413%
Cc1ccc(C(=O)N2CCc3c(COCC4CC4)cncc3C2)o1	9.206%	-18.81%
[H][C@@]12COC[C@]1(COc1nccc(C)n1)CN(C(=O)c1ncccn1)C2	-	-21.66%
CCS(=O)(=O)N1CCC2(CC1)CC(OCC1CC1)CO2 (stereo not shown)	10.95%	18.97%
CCn1nc2c(cc1=O)CN(Cc1nc(-c3ccsc3)no1)CC2	6.135%	20.09%
O[C@@H]1CN(c2noc(C3CC3)n2)CC[C@H]1c1ccc2ccccc2c1	11.88%	-28.87%
O=C(N[C@@H]1CN(C2CCCC2)C[C@@H]2CCCO[C@@H]21)c1cnccn1	14.81%	-
CC(C)c1noc(OCC(=O)N(C)C(C)C)n1	12.14%	10.5%
C[C@@H]1CN(C2CCN(Cc3nn(C)c4cccc(Cl)c34)CC2)C[C@H](C)O1	15.73%	-2.477%
NC(=O)C1CCN(S(=O)(=O)c2cnn(-c3ccccc3)c2)CC1	12.33%	-20.93%
CCn1ccnc1CNCC1CCCN1c1cc(NC)ncn1 (stereo not shown)	13.99%	7.55%
CCNC(=O)NC[C@H]1C[C@@H]2CCN1C[C@@H]2c1cc(-c2cccs2)nn1C	4.511%	-
Cc1nc(C)c(C(=O)N2C[C@@H](C(=O)O)[C@H](C3CC3)C2)s1	8.13%	-7.702%
COCC(C)N1CCc2onc(-c3ccc(C(F)(F)F)cc3)c2C1 (stereo not shown)	11.06%	16.68%

Repeated from the top, 5 entries:

| Compound | A | B |
|---|---|---|
| `CN(C)CCn1ccc2cc(NC(=O)NCc3ccon3)ccc21` | 8.71% | -12.42% |
| `COc1ccc(C[C@H]2CN(c3nnc(C)s3)CC[C@@H]2OC)cc1` | 20.5% | - |
| `O=C(NCc1cccnc1)C1CC(=O)N(CC2CC2)C1` (stereo not shown) | 11.81% | -15.71% |
| `COc1ccc(S(N)(=O)=O)cc1C(=O)N(C)Cc1cc(C)on1` | 0% | 11.51% |
| `[H][C@@]12C[C@H](C)O[C@]1([H])CCN(C(=O)CC1CC1)C2` | - | -1.018% |

Data taken from ChEMBL document CHEMBL3988442, “University of Dundee, Small-Polar-MMV Screening Library” (2021).